Data as given in PubChem BioAssay AID1904 (GNF, 2009).

Assay: 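Gene silencing that lengthens or shortens period, or boosts amplitude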 (follow-up of hits)
Cells: human U2OS osteosarcoma cells stably expressing a destabilised luciferase driven by the Bmal1 promoter
Reagents: siRNA pair against human genes, 12.5 nM (two siRNAs, 0.5 pmol each, per well)
Timing: about 3 days after transfection, then luminescence recorded for about 4 days
Measurement: 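Period and amplitude fitted from detrended luminescence traces taken every 2 hours; duplicate wells averaged, compared with the screen mean and grouped into phenotype classes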
Hit rule: 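Scored active if separate single siRNAs repeated the clock phenotype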
Calls: active = confirmed by single siRNAs; inactive = not confirmed
Only reagents picked out of a larger screen are listed. 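Lists only primary-screen hits; phenotype classes come from fitted traces, and the underlying luminescence values are not given.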 Reagents against one gene are numbered here.

SLAMF7 #1 showed clock phenotype class shorter clock period; seen with one siRNA pair in duplicate wells; confirmed with single siRNAs phenotype not reproduced by individual siRNAs; inconclusive. Silencing of SLAMF7 #2 resulted in: clock phenotype class shorter clock period; seen with one siRNA pair in duplicate wells; confirmed with single siRNAs phenotype not reproduced by individual siRNAs; inconclusive. PIAS1 #1 gave clock phenotype class higher rhythm amplitude; seen with two independent siRNA pairs for the gene; confirmed with single siRNAs phenotype reproduced by individual siRNAs; active. With knock-down of PIAS1 #2, the record shows clock phenotype class higher rhythm amplitude; seen with two independent siRNA pairs for the gene; confirmed with single siRNAs phenotype reproduced by individual siRNAs; active. Depletion of APPBP1 gave: clock phenotype class longer clock period; seen with two independent siRNA pairs for the gene; confirmed with single siRNAs phenotype reproduced by individual siRNAs; active. For MGC15763 #1, the values are clock phenotype class longer clock period; seen with two independent siRNA pairs for the gene; confirmed with single siRNAs not retested with individual siRNAs.

MGC15763 #2 showed clock phenotype class longer clock period; seen with two independent siRNA pairs for the gene; confirmed with single siRNAs not retested with individual siRNAs. C22orf18 #1 scored clock phenotype class shorter clock period; seen with two independent siRNA pairs for the gene; confirmed with single siRNAs phenotype not reproduced by individual siRNAs; inconclusive. After knock-down of C22orf18 #2 the results were clock phenotype class shorter clock period; seen with two independent siRNA pairs for the gene; confirmed with single siRNAs phenotype not reproduced by individual siRNAs; inconclusive. RPS4X #1 gave clock phenotype class longer clock period; seen with two independent siRNA pairs for the gene; confirmed with single siRNAs not retested with individual siRNAs. RPS4X #2 scored clock phenotype class longer clock period; seen with two independent siRNA pairs for the gene; confirmed with single siRNAs not retested with individual siRNAs. With knock-down of PTTG2 #1, the screen gave clock phenotype class shorter clock period; seen with one siRNA pair in duplicate wells; confirmed with single siRNAs phenotype not reproduced by individual siRNAs; inconclusive.

For PTTG2 #2, the values are clock phenotype class shorter clock period; seen with one siRNA pair in duplicate wells; confirmed with single siRNAs phenotype not reproduced by individual siRNAs; inconclusive. For LOXL3 #1, the entry reads clock phenotype class higher rhythm amplitude; seen with two independent siRNA pairs for the gene; confirmed with single siRNAs phenotype reproduced by individual siRNAs; active. Against LOXL3 #2, the values are clock phenotype class higher rhythm amplitude; seen with two independent siRNA pairs for the gene; confirmed with single siRNAs phenotype reproduced by individual siRNAs; active. For TRRAP #1, the entry reads clock phenotype class higher rhythm amplitude; seen with one siRNA pair in duplicate wells; confirmed with single siRNAs phenotype reproduced by individual siRNAs; active. TRRAP #2 showed clock phenotype class higher rhythm amplitude; seen with one siRNA pair in duplicate wells; confirmed with single siRNAs phenotype reproduced by individual siRNAs; active. Silencing of MPG #1 resulted in: clock phenotype class shorter clock period; seen with one siRNA pair in duplicate wells; confirmed with single siRNAs phenotype reproduced by individual siRNAs; active.

With knock-down of MPG #2, the record shows clock phenotype class shorter clock period; seen with one siRNA pair in duplicate wells; confirmed with single siRNAs phenotype reproduced by individual siRNAs; active.

Active calls (from the list above):
PIAS1 #1 → clock phenotype class = higher rhythm amplitude; seen with two independent siRNA pairs for the gene; confirmed with single siRNAs = phenotype reproduced by individual siRNAs; Call = active
PIAS1 #2 → clock phenotype class = higher rhythm amplitude; seen with two independent siRNA pairs for the gene; confirmed with single siRNAs = phenotype reproduced by individual siRNAs; Call = active
APPBP1 → clock phenotype class = longer clock period; seen with two independent siRNA pairs for the gene; confirmed with single siRNAs = phenotype reproduced by individual siRNAs; Call = active
LOXL3 #1 → clock phenotype class = higher rhythm amplitude; seen with two independent siRNA pairs for the gene; confirmed with single siRNAs = phenotype reproduced by individual siRNAs; Call = active
LOXL3 #2 → clock phenotype class = higher rhythm amplitude; seen with two independent siRNA pairs for the gene; confirmed with single siRNAs = phenotype reproduced by individual siRNAs; Call = active
TRRAP #1 → clock phenotype class = higher rhythm amplitude; seen with one siRNA pair in duplicate wells; confirmed with single siRNAs = phenotype reproduced by individual siRNAs; Call = active
TRRAP #2 → clock phenotype class = higher rhythm amplitude; seen with one siRNA pair in duplicate wells; confirmed with single siRNAs = phenotype reproduced by individual siRNAs; Call = active
MPG #1 → clock phenotype class = shorter clock period; seen with one siRNA pair in duplicate wells; confirmed with single siRNAs = phenotype reproduced by individual siRNAs; Call = active
MPG #2 → clock phenotype class = shorter clock period; seen with one siRNA pair in duplicate wells; confirmed with single siRNAs = phenotype reproduced by individual siRNAs; Call = active

More entries:
After knock-down of Cry2 #1, the screen gave clock phenotype class longer clock period; seen with two independent siRNA pairs for the gene; confirmed with single siRNAs phenotype reproduced by individual siRNAs; active. Depletion of Cry2 #2 came out at: clock phenotype class longer clock period; seen with two independent siRNA pairs for the gene; confirmed with single siRNAs phenotype reproduced by individual siRNAs; active. Cry2 #3 scored clock phenotype class longer clock period; seen with two independent siRNA pairs for the gene; confirmed with single siRNAs phenotype reproduced by individual siRNAs; active. After knock-down of Cry2 #4, the screen gave clock phenotype class longer clock period; seen with two independent siRNA pairs for the gene; confirmed with single siRNAs phenotype reproduced by individual siRNAs; active. Knock-down of CRYGD #1 gave: clock phenotype class shorter clock period; seen with one siRNA pair in duplicate wells; confirmed with single siRNAs phenotype not reproduced by individual siRNAs; inconclusive. Against CRYGD #2 the deposit lists clock phenotype class shorter clock period; seen with one siRNA pair in duplicate wells; confirmed with single siRNAs phenotype not reproduced by individual siRNAs; inconclusive.

With knock-down of WBP11 #1 the results were clock phenotype class longer clock period; seen with two independent siRNA pairs for the gene; confirmed with single siRNAs not retested with individual siRNAs. Against WBP11 #2, the entry reads clock phenotype class longer clock period; seen with two independent siRNA pairs for the gene; confirmed with single siRNAs not retested with individual siRNAs. FRAP1 #1 scored clock phenotype class longer clock period; seen with two independent siRNA pairs for the gene; confirmed with single siRNAs phenotype reproduced by individual siRNAs; active. Against FRAP1 #2, the values are clock phenotype class longer clock period; seen with two independent siRNA pairs for the gene; confirmed with single siRNAs phenotype reproduced by individual siRNAs; active. Knock-down of IF #1 gave: clock phenotype class longer clock period; seen with two independent siRNA pairs for the gene; confirmed with single siRNAs phenotype reproduced by individual siRNAs; active. Knock-down of IF #2 resulted in: clock phenotype class longer clock period; seen with two independent siRNA pairs for the gene; confirmed with single siRNAs phenotype reproduced by individual siRNAs; active.

With knock-down of FLJ14981 #1, the record shows clock phenotype class shorter clock period; seen with two independent siRNA pairs for the gene; confirmed with single siRNAs phenotype reproduced by individual siRNAs; active. After knock-down of FLJ14981 #2, the record shows clock phenotype class shorter clock period; seen with two independent siRNA pairs for the gene; confirmed with single siRNAs phenotype reproduced by individual siRNAs; active. After knock-down of TMSNB #1 the results were clock phenotype class shorter clock period; seen with two independent siRNA pairs for the gene; confirmed with single siRNAs phenotype not reproduced by individual siRNAs; inconclusive. For TMSNB #2, the values are clock phenotype class shorter clock period; seen with two independent siRNA pairs for the gene; confirmed with single siRNAs phenotype not reproduced by individual siRNAs; inconclusive. Against LIPG #1, the values are clock phenotype class longer clock period; seen with two independent siRNA pairs for the gene; confirmed with single siRNAs phenotype reproduced by individual siRNAs; active. With knock-down of LIPG #2 the results were clock phenotype class longer clock period; seen with two independent siRNA pairs for the gene; confirmed with single siRNAs phenotype reproduced by individual siRNAs; active.

PLEKHJ1 #1 gave clock phenotype class shorter clock period; seen with two independent siRNA pairs for the gene; confirmed with single siRNAs phenotype reproduced by individual siRNAs; active. With knock-down of PLEKHJ1 #2, the screen gave clock phenotype class shorter clock period; seen with two independent siRNA pairs for the gene; confirmed with single siRNAs phenotype reproduced by individual siRNAs; active. Against C11orf33 #1 the deposit lists clock phenotype class longer clock period; seen with two independent siRNA pairs for the gene; confirmed with single siRNAs phenotype reproduced by individual siRNAs; active. With knock-down of C11orf33 #2, the screen gave clock phenotype class longer clock period; seen with two independent siRNA pairs for the gene; confirmed with single siRNAs phenotype reproduced by individual siRNAs; active. Silencing of CARD9 #1 gave: clock phenotype class shorter clock period; seen with one siRNA pair in duplicate wells; confirmed with single siRNAs phenotype not reproduced by individual siRNAs; inconclusive. CARD9 #2 scored clock phenotype class shorter clock period; seen with one siRNA pair in duplicate wells; confirmed with single siRNAs phenotype not reproduced by individual siRNAs; inconclusive.

For SF1, the values are clock phenotype class longer clock period; seen with two independent siRNA pairs for the gene; confirmed with single siRNAs phenotype reproduced by individual siRNAs; active. For FLJ20605 #1 the deposit lists clock phenotype class shorter clock period; seen with two independent siRNA pairs for the gene; confirmed with single siRNAs phenotype reproduced by individual siRNAs; active. Against FLJ20605 #2 the deposit lists clock phenotype class shorter clock period; seen with two independent siRNA pairs for the gene; confirmed with single siRNAs phenotype reproduced by individual siRNAs; active. Against RETN #1, the values are clock phenotype class longer clock period; seen with two independent siRNA pairs for the gene; confirmed with single siRNAs phenotype reproduced by individual siRNAs; active. Silencing of RETN #2 came out at: clock phenotype class longer clock period; seen with two independent siRNA pairs for the gene; confirmed with single siRNAs phenotype reproduced by individual siRNAs; active. Silencing of MT2A #1 came out at: clock phenotype class shorter clock period; seen with one siRNA pair in duplicate wells; confirmed with single siRNAs phenotype reproduced by individual siRNAs; active.

After knock-down of MT2A #2 the results were clock phenotype class shorter clock period; seen with one siRNA pair in duplicate wells; confirmed with single siRNAs phenotype reproduced by individual siRNAs; active. CDK6 #1 gave clock phenotype class longer clock period; seen with two independent siRNA pairs for the gene; confirmed with single siRNAs phenotype reproduced by individual siRNAs; active. With knock-down of CDK6 #2, the screen gave clock phenotype class longer clock period; seen with two independent siRNA pairs for the gene; confirmed with single siRNAs phenotype reproduced by individual siRNAs; active.
